Measured values taken from the supplement of paper PMC10849652.
Some of the results follow.

By UniProt entry, the sequences of proteins in these tests, tags left out. Where a name states a change or a piece, a line headed by the entry shows the natural chain unless it says otherwise.
UniProt Q9NQC8: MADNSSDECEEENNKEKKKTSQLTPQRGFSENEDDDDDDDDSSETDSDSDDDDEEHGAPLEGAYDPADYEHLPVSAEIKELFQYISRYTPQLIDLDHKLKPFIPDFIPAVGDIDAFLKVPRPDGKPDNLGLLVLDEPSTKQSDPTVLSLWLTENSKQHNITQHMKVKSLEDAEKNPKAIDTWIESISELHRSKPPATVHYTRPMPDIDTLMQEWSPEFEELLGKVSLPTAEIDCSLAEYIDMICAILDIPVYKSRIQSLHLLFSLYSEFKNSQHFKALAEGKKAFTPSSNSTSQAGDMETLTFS
UniProt Q8N6C5: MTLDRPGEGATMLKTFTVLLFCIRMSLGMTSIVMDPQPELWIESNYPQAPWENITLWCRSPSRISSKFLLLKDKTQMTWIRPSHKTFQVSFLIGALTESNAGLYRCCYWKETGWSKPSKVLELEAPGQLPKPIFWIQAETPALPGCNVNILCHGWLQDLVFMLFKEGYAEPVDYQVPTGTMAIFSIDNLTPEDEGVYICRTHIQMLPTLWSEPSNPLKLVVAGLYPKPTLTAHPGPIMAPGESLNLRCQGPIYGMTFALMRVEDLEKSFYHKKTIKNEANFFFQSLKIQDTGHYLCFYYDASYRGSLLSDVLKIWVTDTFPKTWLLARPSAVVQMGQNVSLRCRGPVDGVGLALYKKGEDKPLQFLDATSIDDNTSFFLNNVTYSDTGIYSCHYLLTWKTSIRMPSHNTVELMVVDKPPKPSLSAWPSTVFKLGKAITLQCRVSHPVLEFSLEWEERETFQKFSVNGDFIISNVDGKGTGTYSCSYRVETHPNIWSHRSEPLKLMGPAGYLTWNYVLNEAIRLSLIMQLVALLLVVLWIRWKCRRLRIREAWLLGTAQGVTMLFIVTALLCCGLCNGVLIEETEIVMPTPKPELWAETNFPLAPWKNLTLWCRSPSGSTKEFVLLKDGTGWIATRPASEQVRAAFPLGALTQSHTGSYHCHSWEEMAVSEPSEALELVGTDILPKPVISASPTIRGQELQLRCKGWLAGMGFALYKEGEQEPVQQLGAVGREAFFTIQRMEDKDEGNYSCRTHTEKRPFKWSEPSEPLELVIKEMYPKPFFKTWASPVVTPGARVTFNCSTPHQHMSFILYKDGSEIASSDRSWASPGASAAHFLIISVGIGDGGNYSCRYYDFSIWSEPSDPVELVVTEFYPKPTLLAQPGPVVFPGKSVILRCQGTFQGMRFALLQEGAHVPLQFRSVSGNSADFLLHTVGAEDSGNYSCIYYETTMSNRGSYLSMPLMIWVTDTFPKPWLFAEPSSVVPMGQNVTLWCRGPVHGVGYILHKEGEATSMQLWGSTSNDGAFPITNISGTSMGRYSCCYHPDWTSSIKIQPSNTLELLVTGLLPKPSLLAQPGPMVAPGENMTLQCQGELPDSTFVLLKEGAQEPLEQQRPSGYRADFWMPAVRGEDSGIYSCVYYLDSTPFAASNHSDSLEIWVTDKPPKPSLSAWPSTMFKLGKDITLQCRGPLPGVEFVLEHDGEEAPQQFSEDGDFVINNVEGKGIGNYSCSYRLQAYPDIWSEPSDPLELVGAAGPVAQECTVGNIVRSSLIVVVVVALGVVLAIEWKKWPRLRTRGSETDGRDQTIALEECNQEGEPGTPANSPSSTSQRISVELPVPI
UniProt Q08334: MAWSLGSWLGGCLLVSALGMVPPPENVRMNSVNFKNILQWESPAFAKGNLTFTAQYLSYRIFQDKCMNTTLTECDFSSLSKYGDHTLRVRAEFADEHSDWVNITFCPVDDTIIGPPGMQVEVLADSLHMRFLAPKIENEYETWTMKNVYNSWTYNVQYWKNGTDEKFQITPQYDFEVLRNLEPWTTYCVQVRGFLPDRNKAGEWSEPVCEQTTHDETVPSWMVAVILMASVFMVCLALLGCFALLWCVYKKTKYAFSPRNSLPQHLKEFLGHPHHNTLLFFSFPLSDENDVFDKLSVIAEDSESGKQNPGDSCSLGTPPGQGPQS
UniProt Q9NRY2: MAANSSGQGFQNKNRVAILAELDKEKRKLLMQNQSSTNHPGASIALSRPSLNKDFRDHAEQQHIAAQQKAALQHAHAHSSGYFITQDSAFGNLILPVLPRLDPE
UniProt Q9UG01, whole entry, looked up: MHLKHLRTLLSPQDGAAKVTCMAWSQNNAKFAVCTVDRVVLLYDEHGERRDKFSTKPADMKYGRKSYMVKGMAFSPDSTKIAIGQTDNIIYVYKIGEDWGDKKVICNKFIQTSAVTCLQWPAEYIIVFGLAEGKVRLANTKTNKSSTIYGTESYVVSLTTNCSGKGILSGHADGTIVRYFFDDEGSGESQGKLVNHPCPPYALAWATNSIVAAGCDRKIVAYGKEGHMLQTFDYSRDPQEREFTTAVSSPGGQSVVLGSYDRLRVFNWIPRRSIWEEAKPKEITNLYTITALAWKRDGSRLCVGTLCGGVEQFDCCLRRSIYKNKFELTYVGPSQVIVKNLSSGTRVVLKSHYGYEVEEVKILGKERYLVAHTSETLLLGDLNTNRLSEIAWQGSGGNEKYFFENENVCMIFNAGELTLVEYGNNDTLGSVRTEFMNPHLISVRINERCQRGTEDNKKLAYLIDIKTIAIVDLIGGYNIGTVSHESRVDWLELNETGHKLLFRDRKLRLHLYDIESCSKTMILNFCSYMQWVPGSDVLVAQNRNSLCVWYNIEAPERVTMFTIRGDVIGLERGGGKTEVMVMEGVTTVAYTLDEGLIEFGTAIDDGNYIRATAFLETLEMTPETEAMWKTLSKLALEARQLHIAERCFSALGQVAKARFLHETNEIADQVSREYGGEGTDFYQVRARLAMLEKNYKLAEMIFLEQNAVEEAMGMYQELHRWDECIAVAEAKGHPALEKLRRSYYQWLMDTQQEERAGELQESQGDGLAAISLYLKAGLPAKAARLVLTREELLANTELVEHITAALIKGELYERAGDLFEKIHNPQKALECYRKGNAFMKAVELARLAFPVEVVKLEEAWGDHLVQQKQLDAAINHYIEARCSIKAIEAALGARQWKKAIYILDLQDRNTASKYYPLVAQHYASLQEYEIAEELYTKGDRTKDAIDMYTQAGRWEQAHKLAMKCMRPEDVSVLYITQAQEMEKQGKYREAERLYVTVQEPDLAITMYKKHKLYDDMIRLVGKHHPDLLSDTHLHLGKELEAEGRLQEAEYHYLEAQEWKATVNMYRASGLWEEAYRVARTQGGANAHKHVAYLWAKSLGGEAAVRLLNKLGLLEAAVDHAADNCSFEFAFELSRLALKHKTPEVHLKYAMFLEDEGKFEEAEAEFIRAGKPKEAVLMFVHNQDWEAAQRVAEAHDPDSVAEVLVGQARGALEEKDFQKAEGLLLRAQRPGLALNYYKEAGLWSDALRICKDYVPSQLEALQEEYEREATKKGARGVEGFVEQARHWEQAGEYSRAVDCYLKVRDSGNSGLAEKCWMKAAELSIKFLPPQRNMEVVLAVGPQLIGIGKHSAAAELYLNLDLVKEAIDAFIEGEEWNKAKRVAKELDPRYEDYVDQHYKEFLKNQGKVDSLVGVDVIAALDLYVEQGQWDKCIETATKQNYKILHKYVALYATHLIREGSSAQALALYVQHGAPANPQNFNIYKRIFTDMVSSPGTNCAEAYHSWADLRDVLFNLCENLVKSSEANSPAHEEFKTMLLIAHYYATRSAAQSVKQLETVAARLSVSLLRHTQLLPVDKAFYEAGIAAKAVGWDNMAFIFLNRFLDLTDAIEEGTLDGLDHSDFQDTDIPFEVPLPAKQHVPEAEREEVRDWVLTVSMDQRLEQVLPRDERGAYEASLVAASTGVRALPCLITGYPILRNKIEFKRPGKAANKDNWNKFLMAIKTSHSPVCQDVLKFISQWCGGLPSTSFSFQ
UniProt Q9C086, whole entry, looked up: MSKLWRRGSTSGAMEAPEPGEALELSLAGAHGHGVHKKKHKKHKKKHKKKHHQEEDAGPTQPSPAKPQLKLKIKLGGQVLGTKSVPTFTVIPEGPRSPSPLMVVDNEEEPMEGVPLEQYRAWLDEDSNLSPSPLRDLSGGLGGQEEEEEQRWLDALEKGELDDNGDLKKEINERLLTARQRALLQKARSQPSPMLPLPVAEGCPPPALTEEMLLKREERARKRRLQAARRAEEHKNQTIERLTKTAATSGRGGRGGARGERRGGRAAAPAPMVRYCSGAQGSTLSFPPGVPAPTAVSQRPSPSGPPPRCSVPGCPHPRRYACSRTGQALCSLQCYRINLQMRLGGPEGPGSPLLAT
UniProt Q96G21: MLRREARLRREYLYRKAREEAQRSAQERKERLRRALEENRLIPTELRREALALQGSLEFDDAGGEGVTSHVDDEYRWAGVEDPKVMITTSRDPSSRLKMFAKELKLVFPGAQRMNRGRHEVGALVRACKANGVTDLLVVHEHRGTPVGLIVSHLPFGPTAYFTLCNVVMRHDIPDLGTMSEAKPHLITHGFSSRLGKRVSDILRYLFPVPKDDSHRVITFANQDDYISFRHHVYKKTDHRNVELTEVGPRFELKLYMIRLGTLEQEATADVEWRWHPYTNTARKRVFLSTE
UniProt P15516: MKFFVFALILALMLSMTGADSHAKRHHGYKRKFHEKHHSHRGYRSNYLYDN
UniProt P35475: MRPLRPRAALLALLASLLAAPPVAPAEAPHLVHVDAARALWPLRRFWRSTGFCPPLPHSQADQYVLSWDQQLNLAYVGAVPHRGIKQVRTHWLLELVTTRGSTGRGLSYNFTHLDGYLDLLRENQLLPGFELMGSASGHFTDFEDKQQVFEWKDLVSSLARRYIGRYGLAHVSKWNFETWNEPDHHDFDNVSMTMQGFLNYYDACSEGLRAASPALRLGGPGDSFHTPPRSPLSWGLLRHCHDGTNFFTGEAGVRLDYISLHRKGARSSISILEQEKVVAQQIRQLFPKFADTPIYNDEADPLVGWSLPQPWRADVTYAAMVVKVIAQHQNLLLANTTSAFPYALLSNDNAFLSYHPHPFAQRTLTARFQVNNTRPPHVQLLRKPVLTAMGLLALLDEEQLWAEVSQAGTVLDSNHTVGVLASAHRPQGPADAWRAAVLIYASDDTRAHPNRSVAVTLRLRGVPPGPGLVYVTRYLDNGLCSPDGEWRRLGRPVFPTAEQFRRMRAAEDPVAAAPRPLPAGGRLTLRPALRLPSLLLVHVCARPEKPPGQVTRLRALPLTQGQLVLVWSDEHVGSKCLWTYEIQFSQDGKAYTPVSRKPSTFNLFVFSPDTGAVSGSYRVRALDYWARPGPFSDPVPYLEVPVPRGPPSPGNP
UniProt P40189: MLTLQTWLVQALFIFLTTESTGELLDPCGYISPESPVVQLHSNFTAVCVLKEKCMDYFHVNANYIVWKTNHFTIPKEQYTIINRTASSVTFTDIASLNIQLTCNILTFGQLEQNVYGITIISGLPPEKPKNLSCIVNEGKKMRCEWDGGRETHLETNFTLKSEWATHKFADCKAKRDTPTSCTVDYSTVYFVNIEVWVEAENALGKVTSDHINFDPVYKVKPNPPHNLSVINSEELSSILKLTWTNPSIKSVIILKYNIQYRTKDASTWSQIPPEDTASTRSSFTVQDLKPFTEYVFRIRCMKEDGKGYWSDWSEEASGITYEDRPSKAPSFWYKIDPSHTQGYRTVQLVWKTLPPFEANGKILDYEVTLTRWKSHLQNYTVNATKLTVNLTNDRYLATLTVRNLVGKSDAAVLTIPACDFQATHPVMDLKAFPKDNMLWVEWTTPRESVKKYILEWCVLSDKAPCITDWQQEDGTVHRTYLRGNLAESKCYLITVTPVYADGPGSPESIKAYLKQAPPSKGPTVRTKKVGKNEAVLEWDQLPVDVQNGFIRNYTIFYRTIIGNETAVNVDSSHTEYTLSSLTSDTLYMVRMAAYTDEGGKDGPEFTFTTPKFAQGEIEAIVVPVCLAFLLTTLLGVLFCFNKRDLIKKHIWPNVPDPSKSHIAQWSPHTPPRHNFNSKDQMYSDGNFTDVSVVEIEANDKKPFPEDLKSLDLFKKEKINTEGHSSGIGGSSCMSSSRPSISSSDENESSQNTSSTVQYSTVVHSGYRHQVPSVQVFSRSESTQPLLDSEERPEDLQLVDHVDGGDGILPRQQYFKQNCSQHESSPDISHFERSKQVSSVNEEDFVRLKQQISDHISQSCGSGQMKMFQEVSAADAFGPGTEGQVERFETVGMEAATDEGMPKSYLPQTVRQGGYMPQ
UniProt P01877, whole entry, looked up: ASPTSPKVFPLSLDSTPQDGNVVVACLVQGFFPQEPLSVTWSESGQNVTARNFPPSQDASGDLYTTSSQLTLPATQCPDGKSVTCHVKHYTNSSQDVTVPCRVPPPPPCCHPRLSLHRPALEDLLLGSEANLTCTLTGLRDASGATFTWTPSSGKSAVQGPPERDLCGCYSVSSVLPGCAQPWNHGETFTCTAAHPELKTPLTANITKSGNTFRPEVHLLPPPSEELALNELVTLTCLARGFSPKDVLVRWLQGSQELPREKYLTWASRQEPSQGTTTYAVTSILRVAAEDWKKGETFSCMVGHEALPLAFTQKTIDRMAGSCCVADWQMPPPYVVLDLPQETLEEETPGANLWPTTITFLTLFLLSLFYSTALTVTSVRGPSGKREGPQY
IGKV3D-7, A0A0C4DH55, UniProt A0A0C4DH55, whole entry, looked up: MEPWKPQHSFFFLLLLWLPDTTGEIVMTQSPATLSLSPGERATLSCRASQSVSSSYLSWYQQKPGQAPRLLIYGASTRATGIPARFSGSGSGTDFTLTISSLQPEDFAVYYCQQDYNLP

compound: CC1=C2C(=CC=C1)N=C(N(C2=O)C3=CC=CC=C3C)CN4C=NC5=C(N=CN=C54)N; assay: log2 fold change, soluble protein after heating vs DMSO (PISA); higher = thermal stabilisation; K562 lysate, 10 uM; active = over 0.2 and 3.5 SD of the protein, either way, in both replicates (recomputed)
How it was run: (§1)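 Following dounce homogenisation of K562 pellets in PBS pH 7.4 with 1 mM MgCl2, crude extract at 1 mg/mL protein was incubated for 30 min with 10 μM compound. Aliquots were then heated for 3 min over 48°C-58°C and pooled, NP-40 was added to 0.5% at 4°C, and soluble protein was recovered as the supernatant at 21,000xg for 90 min. Channel-sum-equalised TMTpro 16plex LC-MS/MS quantified this protein. Each value, from duplicates, is a log-two fold change in thermal stability relative to solvent controls.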

Target | log2 fold change
IFT122 isoform 5 (UniProt Q9HBG6) | inactive: 0.106
IFT46 isoform 2 (UniProt Q9NQC8) | inactive: -0.065
IGLL5 (UniProt B9A064) | inactive: 0.065
IGSF1 isoform 4 (UniProt Q8N6C5) | inactive: 0.033
HYOU1 (UniProt J3QL06) | inactive: 0.009
HYDIN (UniProt Q4G0P3) | inactive: -0.069
IL10RB (UniProt Q08334) | inactive: 0.042
INIP (UniProt Q9NRY2) | inactive: 0.09
IFT172 (UniProt Q9UG01) | inactive: -0.023

compound: Cc1sc2c(c1C)C(c1ccc(Cl)cc1)=N[C@@H](CC(=O)OC(C)(C)C)c1nnc(C)n1-2; assay: as above
How it was run: as §1

Target | log2 fold change
IFT57 (UniProt Q9NWB7) | inactive: 0.018
IFT122 isoform 5 (UniProt Q9HBG6) | inactive: -0.014
IFIT3 (UniProt O14879) | inactive: -0.037
INCENP (UniProt Q9NQS7) | inactive: 0.048
HSPBP1 (UniProt K7EMM7) | inactive: 0.036
INO80B (UniProt Q9C086) | inactive: -0.153
HUWE1 (UniProt H0Y659) | inactive: 0.094
HYOU1 (UniProt J3QL06) | inactive: -0.211
IGKV3-20 (UniProt P01619) | inactive: 0.107
HYDIN (UniProt Q4G0P3) | inactive: -0.078
IL10RB (UniProt Q08334) | inactive: -0.004
IGHM isoform 2 (UniProt P01871) | inactive: 0.169
INIP (UniProt Q9NRY2) | inactive: 0.021
IFT172 (UniProt Q9UG01) | inactive: 0.103
INAFM2 (UniProt P0DMQ5) | inactive: -0.098
IFNAR1 (UniProt P17181) | inactive: 0.016

compound: c1ccc([C@@H]2C[C@H]2NC2CCNCC2)cc1; assay: as above
How it was run: as §1

Target | log2 fold change
IMP4 (UniProt Q96G21) | inactive: 0.053
INPP5E (UniProt Q9NRR6) | inactive: -0.038
IFT46 isoform 2 (UniProt Q9NQC8) | inactive: -0.083
INO80 (UniProt Q9ULG1) | inactive: 0.028
IGLL5 (UniProt B9A064) | inactive: -0.245
IL13RA1 (UniProt P78552) | inactive: -0.271
IGSF1 isoform 4 (UniProt Q8N6C5) | inactive: -0.064
HTN3 (UniProt P15516) | inactive: 0.046
IGKV3-20 (UniProt P01619) | inactive: -0.243
IDUA (UniProt P35475) | inactive: 0.022
IGKV1D-33, A0A2Q2TTZ9 | inactive: -0.157
IGHM isoform 2 (UniProt P01871) | inactive: -0.146
IL6ST (UniProt P40189) | inactive: 0.162
HTRA3 (UniProt P83110) | inactive: -0.439
IGHA2 (UniProt P01877) | inactive: -0.406
IGKV3D-7, A0A0C4DH55 | inactive: -0.161
IFNAR1 (UniProt P17181) | inactive: 0.074
IGHV3-72, A0A4W8ZXM2 | inactive: -0.126
INHBE (UniProt P58166) | inactive: 0
HSPH1 (UniProt Q5TBM3) | inactive: 0.161
